In publication PMC7673371, “Real-Time Parallel Artificial Membrane Permeability Assay Based on Supramolecular Fluorescent Artificial Receptors” (Frontiers in Chemistry, 2020):
“Also recorded” adds a separate entry of the source. Some compounds share one wording; it may come from a single statement.

These compounds were tested on MDAP∙CB8 receptor (assay: Screening of the fluorescence response of the MDAP∙CB8 receptor in homogeneous solution). Conditions: 0.1 mmol/L analyte (20 equiv.), 5 μmol/L MDAP∙CB8.
Type: binding

SMILES	fluorescence response / associative binding toward MDAP∙CB8 reporter pair
OC12CC3CC(CC(C3)C1)C2 [1-adamantanol]	no or weak associative binding; also recorded: insignificant fluorescence response/binding
NC12CC3CC(CC(C3)C1)C2 [1-adamantylamine]	no or weak associative binding; also recorded: insignificant fluorescence response/binding
NS(=O)(=O)c1cc(C(=O)O)c(NCc2ccco2)cc1Cl [furosemide]	no or weak associative binding
COc1cc(NC(C)CCCN)c2ncccc2c1 (stereo not drawn) [primaquine]	no or weak associative binding
C=C[C@H]1C[N@@]2CC[C@H]1C[C@H]2[C@H](O)c1ccnc2ccc(OC)cc12 [quinine]	no or weak associative binding
CN(C)CCc1c[nH]c2ccc(C[C@H]3COC(=O)N3)cc12 [zolmitriptan]	no or weak associative binding
